Values quoted from earlier work in patent US11471538B2, “Methods and pharmaceutical compositions for the treatment of cancers associated with activation of the MAPK pathway” (INSERM (Institut National de la Santé et de la Recherche …, priority 2017, dated 2022).
Some of these results come from one statement about several compounds together.

Tested on: BRAFV600E positive metastatic melanomas
Settings: subjects with BRAFV600E positive metastatic melanomas; cited from earlier work

CC(C)(C)c1nc(-c2cccc(NS(=O)(=O)c3c(F)cccc3F)c2F)c(-c2ccnc(N)n2)s1 [Dabrafenib]
subjects showing therapeutic effect: more than 50%
